Literature values in patent US20250099634A1, “METHOD OF TREATING CANCER” (Novartis AG, priority 2023, published 2025).
Some results were stated once for a whole list of compounds, not compound by compound.

System: advanced midgut carcinoid and/or metastatic GEP-NET
Conditions: high-dose treatment; three studies; cited from earlier work

**Q.** With `CC(C)[C@@H]1NC(=O)[C@H](CCCCN)NC(=O)[C@@H](Cc2c[nH]c3ccccc23)NC(=O)[C@H](Cc2ccc(O)cc2)NC(=O)[C@@H](NC(=O)[C@H](N)Cc2ccc3ccccc3c2)CSSC[C@@H](C(=O)N[C@H](C(N)=O)[C@@H](C)O)NC1=O` [lanreotide] as the compound, how does the disease stabilization read?
**A.** 37-75%
